We go through 2 molecules from patent US20120077731A1.

The target in assay [1] is Cyno plasma sIL-6R (cynomolgus monkey). Kind of assay: plasma potency ELISA, cyno plasma + human IL-6 50 ng/mL; sIL-6R captured on BN-12, bound IL-6 detected; blocked ligand IL-6. (In general: ELISA stands for enzyme-linked immunosorbent assay.)
In assay [2] the target is Cyno IL-6R (cynomolgus monkey). Briefly: SPR Biacore 3000.

Changes are numbered by the printed parent chain. Results are given in words; binding and its absence hold for the method and conditions named. Binding calls can cover weak binding; strength is not graded here.

B1: IL6R65 (VHH)
VHH: EVQLVESGGGLVQPGGSLRLSCAASGSIFKVNAMGWYRQAPGKGRELVAGIISGGSTNYADSVKGRFTISRDNAKNTLYLQMNSLRPEDTAVYYCAFVTTNSDYDLGRDYWGQGTLVTVSS
B1: the binding result in assay [1] and in assay [2] was “binds” each time.

B2: IL6R03 (VHH, not shown: small tags and cut ends)
VHH: B1 VHH with P14A, G44Q, F67L, L78V, R86K, A96S, L116Q
Consider B2, for which the binding entry in assay [2] is “binds”.
